According to patent US20250297019A1:
These are yes or no findings as the source states them, for the method shown. Some results given as binding are weak or reduced against the parent protein; the word gives no strength. For some assays here: Sequences can lack the tags named with a protein.

By UniProt entry, the sequences of proteins in these tests, tags left out. Where a name states a change or a piece, a line headed by the entry shows the natural chain unless it says otherwise. Chains listed by the source or under a name are the forms on record and can include a tag or linker.
UniProt P51685: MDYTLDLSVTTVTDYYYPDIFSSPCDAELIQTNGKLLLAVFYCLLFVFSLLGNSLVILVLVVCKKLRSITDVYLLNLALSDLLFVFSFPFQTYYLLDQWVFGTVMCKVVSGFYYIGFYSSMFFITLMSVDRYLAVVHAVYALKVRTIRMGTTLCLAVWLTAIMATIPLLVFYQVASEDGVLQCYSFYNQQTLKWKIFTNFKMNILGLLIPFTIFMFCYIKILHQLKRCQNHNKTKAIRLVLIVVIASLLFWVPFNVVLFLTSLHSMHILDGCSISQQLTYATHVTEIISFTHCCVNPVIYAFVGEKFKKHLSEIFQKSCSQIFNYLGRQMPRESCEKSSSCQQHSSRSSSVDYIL
human CXCR4, N-terminally FLAG-tagged (P61073, form named): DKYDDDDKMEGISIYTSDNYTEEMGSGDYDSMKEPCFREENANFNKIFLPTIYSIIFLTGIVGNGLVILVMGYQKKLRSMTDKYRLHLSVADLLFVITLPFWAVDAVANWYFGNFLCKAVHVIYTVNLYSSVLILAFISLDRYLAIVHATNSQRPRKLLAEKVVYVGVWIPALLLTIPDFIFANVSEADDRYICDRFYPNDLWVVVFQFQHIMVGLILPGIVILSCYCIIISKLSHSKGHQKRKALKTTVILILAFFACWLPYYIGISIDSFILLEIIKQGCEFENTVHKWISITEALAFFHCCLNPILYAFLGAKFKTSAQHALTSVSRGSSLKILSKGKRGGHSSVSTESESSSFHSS

Assays:
[1] = molecular target: T1, human ACKR4, N-terminally FLAG-tagged (human) (UniProt Q9NPB9); assay: flow cytometry, HEK293 cells transiently transfected with the N-terminally FLAG-tagged receptor, antibody at 5 ug/ml, AF647 secondary antibody
T1 sequence: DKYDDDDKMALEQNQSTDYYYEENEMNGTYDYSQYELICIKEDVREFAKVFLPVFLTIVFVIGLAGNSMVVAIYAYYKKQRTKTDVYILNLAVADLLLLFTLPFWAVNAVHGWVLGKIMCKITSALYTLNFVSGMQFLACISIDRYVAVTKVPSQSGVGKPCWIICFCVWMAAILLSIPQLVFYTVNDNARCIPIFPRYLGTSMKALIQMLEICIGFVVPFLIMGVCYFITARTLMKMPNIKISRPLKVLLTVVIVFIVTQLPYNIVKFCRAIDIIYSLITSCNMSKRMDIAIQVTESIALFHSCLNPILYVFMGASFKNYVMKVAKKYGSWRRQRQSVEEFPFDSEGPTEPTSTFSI

[2] = molecular target: human CCR8, N-terminally FLAG-tagged (human) (UniProt P51685); assay: as above
[3] = molecular target: T2, human ACKR2, N-terminally FLAG-tagged (human) (UniProt O00590); assay: as above
T2 sequence: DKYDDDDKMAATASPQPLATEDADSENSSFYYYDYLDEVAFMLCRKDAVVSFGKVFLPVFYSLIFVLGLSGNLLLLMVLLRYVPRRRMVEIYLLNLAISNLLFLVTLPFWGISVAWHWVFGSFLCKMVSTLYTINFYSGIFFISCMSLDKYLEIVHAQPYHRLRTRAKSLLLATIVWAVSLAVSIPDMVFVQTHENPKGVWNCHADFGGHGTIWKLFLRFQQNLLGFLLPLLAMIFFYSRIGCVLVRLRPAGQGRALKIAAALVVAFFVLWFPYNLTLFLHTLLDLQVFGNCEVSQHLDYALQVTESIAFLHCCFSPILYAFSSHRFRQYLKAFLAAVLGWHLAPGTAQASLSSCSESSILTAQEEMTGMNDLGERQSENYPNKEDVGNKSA

[4] = molecular target: T3, human CCR3, N-terminally FLAG-tagged (human) (UniProt P51677); assay: as above
T3 sequence: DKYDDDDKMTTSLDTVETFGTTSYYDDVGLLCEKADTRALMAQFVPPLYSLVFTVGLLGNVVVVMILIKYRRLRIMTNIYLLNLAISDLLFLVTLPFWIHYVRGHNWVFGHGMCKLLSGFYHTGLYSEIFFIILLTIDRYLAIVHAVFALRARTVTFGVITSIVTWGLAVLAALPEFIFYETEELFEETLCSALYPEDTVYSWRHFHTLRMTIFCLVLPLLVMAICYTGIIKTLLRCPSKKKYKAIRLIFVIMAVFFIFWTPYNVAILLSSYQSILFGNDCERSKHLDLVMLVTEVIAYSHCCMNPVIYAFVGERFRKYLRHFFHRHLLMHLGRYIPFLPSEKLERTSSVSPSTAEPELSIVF

[5] = molecular target: human CCR5, N-terminally FLAG-tagged (human) (UniProt P51681); assay: as above
[6] = molecular target: human CXCR4, N-terminally FLAG-tagged (human) (UniProt P61073); assay: as above
[7] = molecular target: T4, human CCR4, N-terminally FLAG-tagged (human) (UniProt P51679); assay: as above
T4 sequence: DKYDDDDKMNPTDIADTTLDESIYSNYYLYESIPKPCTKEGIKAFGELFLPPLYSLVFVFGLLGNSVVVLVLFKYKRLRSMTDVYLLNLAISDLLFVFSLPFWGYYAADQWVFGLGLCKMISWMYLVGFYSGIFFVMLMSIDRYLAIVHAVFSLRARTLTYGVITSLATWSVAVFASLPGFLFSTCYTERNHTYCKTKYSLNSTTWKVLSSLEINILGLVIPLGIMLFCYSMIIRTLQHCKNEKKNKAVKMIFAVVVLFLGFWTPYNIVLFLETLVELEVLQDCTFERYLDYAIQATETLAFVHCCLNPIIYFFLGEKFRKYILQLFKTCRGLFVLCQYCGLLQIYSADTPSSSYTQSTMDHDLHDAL

[8] = molecular target: human CCR8, N-terminally FLAG-tagged (human) (UniProt P51685); assay: flow cytometry on transfected HEK293 cells, 5 µg/ml
[9] = molecular target: human CCR8, N-terminally FLAG-tagged (human) (UniProt P51685); assay: flow cytometry on transfected HEK293 cells

Measured: binding

B1: hu.Ab3.H1L1 (antibody, human IgG1, kappa, V domains shown)
VH: EQQLVESGGGLVQPGGSLRLSCAVSGFSLSSYAMSWVRQAPGKGLEWIGVISASGRIIYATWAKGRFTISKDSAKTSVYLQMNSLRDEDTAVYFCARGVPSYSLVMSDWGPGTTVTVSS
VL: EPVMTQSPATLSVSPGERATLSCQASQSISNALAWYQQKPGQPPRLLIYEVSKVASGVPARFSGSGSGTEFTLTISSLQSEDFAVYYCQSAYYGNSYVWGAFGQGTKVEIKR
binds: [1] | [2] | [3] | [4] | [5] | [6] | [7]

B2: hu.Ab4.H1L1 (antibody, human IgG1, V domains shown)
VH: EQQLLESGGGLVQPGGSLRLSCAVSGFSLSNYAMIWVRQAPGKGLEWVGTISLGGYTYYANWAKGRFTISKDSSKTTVYLQMNSLRAEDTAVYFCARARWSTDSAIYTYAFDPWGPGTLVTVSS
VL: DYQMTQSPSSLSASVGDRVTITCQASQSISSYLSWYQQKPGKRPKLLIYKASTLASGVPSRFSGSGSGTDFTLTISSLQPEDFATYYCQQGYTSSNIDNIFGGGTKVEIK
binds: [8] | [9]

B3: hu.Ab5.H1L1 (antibody, human IgG1, V domains shown)
VH: EQQLLESGGGLVQPGGSLRLSCAVSGIDLSTYAMGWVRQAPGKGLEWIGLIHRSGRTYYATWAKGRFTISKDSSKTTVYLQMNSLRAEDTAVYFCTRSYPDYSATASIWGPGTTVTVSS
VL: DIQVTQSPSSLSASVGDRVTITCQASENIANALAWYQQKPGKPPKFLIYGASNLASGVPSRFSGSGSGTDFTFTISSLQPEDIATYYCQQAYYGNSFVEGTFGGGTKVEIK
binds: [8] | [9]
